Some entries share one result that the patent states for a list of compounds.
Legend:
Plasmopara viticola = experiment: Preventive foliar spray test on potted grape (variety Berry A) inoculated with Plasmopara viticola zoosporangia (Test Examples 1-3); assay type: in vivo; settings: foliar spray before inoculation, 1 day at 23° C. high humidity then 6 days in green house
Phytophthora infestans = assay type: in vivo; settings: tomato (Ponterosa), flowable diluted to 500 ppm, foliar spray before inoculation, 1 day at 23° C. high humidity then 4 days in green house

Row | SMILES | lesion area on plants in the treatment district relative to the lesion area of a non-treatment district (Plasmopara viticola; flowable diluted to 200 ppm) | lesion area on plants in the treatment district relative to the lesion area of a non-treatment district (Phytophthora infestans) | lesion area on plants in the treatment district relative to the lesion area of a non-treatment district (Plasmopara viticola; flowable diluted to 50 ppm) | lesion area on plants in the treatment district relative to the lesion area of a non-treatment district (Plasmopara viticola; flowable diluted to 12.5 ppm)
1 | C#CCOC=C(C(=O)NCCc1ccc(OC)c(OC)c1)c1ccc(C)cc1 [Compound 1182, N-[2-(3,4-dimethoxyphenyl)ethyl]-3-(2-propynyloxy)-2-(4-methylphenyl)acrylamide] | not more than 10% | not more than 10% | – | –
2 | C#CCOC=C(C(=O)NCCc1ccc(OC)c(OC)c1)c1ccc2c(c1)CCCC2 [Compound 1196, N-[2-(3,4-dimethoxyphenyl)ethyl]-3-(2-propynyloxy)-2-(5,6,7,8-tetrahydronaphthalen-2-yl)acrylamide] | not more than 10% | not more than 10% | – | –
3 | COc1ccc(CCNC(=O)C(=C(Br)OC(F)F)c2ccc(C)cc2)cc1OC [Compound 1197, N-[2-(3,4-dimethoxyphenyl)ethyl]-3-bromodifluoromethoxy-2-(4-methylphenyl)acrylamide] | not more than 10% | not more than 10% | – | –
4 | COc1ccc(CCNC(=O)C(=COCC#CCl)c2ccc3c(c2)CCCC3)cc1OC [Compound 1223, 3-(3-chloro-2-propynyloxy)-N-[2-(3,4-dimethoxyphenyl)ethyl]-2-(5,6,7,8-tetrahydronaphthalen-2-yl)acrylamide] | not more than 10% | not more than 10% | – | –
5 | COc1ccc(CCNC(=O)C(=COCC=C(Cl)Cl)c2ccc3c(c2)CCCC3)cc1OC [Compound 1232, 3-(3,3-dichloroallyloxy)-N-[2-(3,4-dimethoxyphenyl)ethyl]-2-(5,6,7,8-tetrahydronaphthalen-2-yl)acrylamide] | not more than 10% | not more than 10% | – | –
6 | COc1ccc(CCNC(=O)C(=COCCF)c2ccc3c(c2)CCCC3)cc1OC [Compound 1241, N-[2-(3,4-dimethoxyphenyl)ethyl]-3-(2-fluoroethoxy)-2-(5,6,7,8-tetrahydronaphthalen-2-yl)acrylamide] | not more than 10% | not more than 10% | – | –
7 | COc1ccc(CCNC(=O)C(=COC(F)F)c2ccc(C(C)C)cc2)cc1OC [Compound 1251, 3-difluoromethoxy-N-[2-(3,4-dimethoxyphenyl)ethyl]-2-(4-isopropylphenyl)acrylamide] | not more than 10% | not more than 10% | – | –
8 | C#CCOc1ccc(CCNC(=O)C(=COC(F)F)c2ccc3c(c2)CCCC3)cc1OC [Compound 1268, 3-difluoromethoxy-N-[2-{3-methoxy-4-(2-propynyloxy)phenyl}ethyl]-2-(5,6,7,8-tetrahydronaphthalen-2-yl)acrylamide] | not more than 10% | not more than 10% | – | –
9 | COc1cc(CCNC(=O)C(=COC(F)F)c2ccc3c(c2)CCCC3)ccc1OCC#N [Compound 1274, N-[2-(4-cyanomethoxy-3-methoxyphenyl)ethyl]-3-difluoromethoxy-2-(5,6,7,8-tetrahydronaphthalen-2-yl)acrylamide] | not more than 10% | not more than 10% | – | –
10 | COc1cc(CCNC(=O)C(=COC(F)F)c2ccc3c(c2)CCCC3)ccc1OCc1ccccc1 [Compound 1281, N-[2-(4-benzyloxy-3-methoxyphenyl)ethyl]-3-difluoromethoxy-2-(5,6,7,8-tetrahydronaphthalen-2-yl)acrylamide] | not more than 10% | not more than 10% | – | –
11 | COc1cc(CCNC(=O)C(=COC(F)F)c2ccc3c(c2)CCCC3)ccc1OC(C)=O [Compound 1282, 3-difluoromethoxy-N-[2-(3-methoxy-4-acetyloxyphenyl)ethyl]-2-(5,6,7,8-tetrahydronaphthalen-2-yl)acrylamide] | not more than 10% | not more than 10% | – | –
12 | COCOc1ccc(CCNC(=O)C(=COC(F)F)c2ccc3c(c2)CCCC3)cc1OC [Compound 1284, 3-difluoromethoxy-N-[2-(3-methoxy-4-methoxymethoxyphenyl)ethyl]-2-(5,6,7,8-tetrahydronaphthalen-2-yl)acrylamide] | – | not more than 10% | not more than 10% | –
13 | CCOc1cc(CCNC(=O)C(=COC(F)F)c2ccc3c(c2)CCCC3)ccc1OC [Compound 1320, 3-difluoromethoxy-N-[2-(3-ethoxy-4-methoxyphenyl)ethyl]-2-(5,6,7,8-tetrahydronaphthalen-2-yl)acrylamide] | not more than 10% | not more than 10% | – | –
14 | C#CCOc1ccc(CCNC(=O)C(=COC(F)F)c2ccc(C)cc2)cc1OC [Compound 1353, 3-difluoromethoxy-N-[2-{3-methoxy-4-(2-propynyloxy)phenyl}ethyl]-2-(4-methylphenyl)acrylamide] | – | not more than 10% | not more than 10% | –
15 | C#CCOc1ccc(CCNC(=O)C(=COC(F)F)c2ccc(CC)cc2)cc1OC [Compound 1354, 3-difluoromethoxy-2-(4-ethylphenyl)-N-[2-{3-methoxy-4-(2-propynyloxy)phenyl}ethyl]acrylamide] | – | not more than 10% | – | not more than 10%
16 | C#CCOc1ccc(CCNC(=O)C(=COC(F)F)c2ccc(OC)cc2)cc1OC [Compound 1358, 3-difluoromethoxy-2-(4-methoxyphenyl)-N-[2-{3-methoxy-4-(2-propynyloxy)phenyl}ethyl]acrylamide] | – | not more than 10% | – | not more than 10%
17 | C#CCOc1ccc(CCNC(=O)C(=COC(F)F)c2ccc3c(c2)CCC3)cc1OC [Compound 1360, 3-difluoromethoxy-2-(indan-5-yl)-N-[2-{3-methoxy-4-(2-propynyloxy)phenyl}ethyl]acrylamide] | – | not more than 10% | not more than 10% | –
18 | C#CCOc1ccc(CCNC(=O)C(=COC(F)F)c2ccccc2)cc1OC [Compound 1388, 3-difluoromethoxy-N-[2-{3-methoxy-4-(2-propynyloxy)phenyl}ethyl]-2-phenylacrylamide] | – | not more than 10% | – | not more than 10%
19 | C#CCOc1ccc(CCNC(=O)C(=COC(F)F)c2ccc(F)cc2)cc1OC [Compound 1392, 3-difluoromethoxy-2-(4-fluorophenyl)-N-[2-{3-methoxy-4-(2-propynyloxy)phenyl}ethyl]acrylamide] | – | not more than 10% | – | not more than 10%
20 | C#CCOc1ccc(CCNC(=O)C(=COC(F)F)c2ccc(Cl)c(Cl)c2)cc1OC [Compound 1429, 3-difluoromethoxy-2-(3,4-dichlorophenyl)-N-[2-{3-methoxy-4-(2-propynyloxy)phenyl}ethyl]acrylamide] | – | not more than 10% | – | not more than 10%
21 | C#CCOc1ccc(CCNC(=S)C(=COC(F)F)c2ccc(C)cc2)cc1OC [Compound 1445, 3-difluoromethoxy-N-[2-{3-methoxy-4-(2-propynyloxy)phenyl}ethyl]-2-(4-methylphenyl)acrylthioamide] | – | not more than 10% | not more than 10% | –
22 | O=C(NCCc1ccc2c(c1)OCCO2)C(=COC(F)F)c1ccc2c(c1)CCCC2 [Compound 1450, 3-difluoromethoxy-N-[2-(2,3-dihydrobenzo[1,4]dioxin-6-yl)ethyl]-2-(5,6,7,8-tetrahydronaphthalen-2-yl)acrylamide] | – | not more than 10% | not more than 10% | –
23 | COc1ccc(CCNC(=O)C(=COC(F)F)c2ccc3ccccc3c2)cc1OC [Compound 2077, 3-difluoromethoxy-N-[2-(3,4-dimethoxyphenyl)ethyl]-2-(naphthalen-2-yl)acrylamide] | not more than 10% | not more than 10% | – | –
24 | C#CCOc1ccc(CCNC(=O)C(=COC(F)F)c2ccc(C)s2)cc1OC [Compound 2133, 3-difluoromethoxy-2-(5-methylthiophen-2-yl)-N-[2-{3-methoxy-4-(2-propynyloxy)phenyl}ethyl]acrylamide] | not more than 10% | not more than 10% | – | –

Source: patent US6762321B2 (priority 2000, dated 2004)
